Experimental data: patent US20250006331A1, “QUANTITATIVE SYSTEMS PHARMACOLOGY METHODS FOR IDENTIFYING THERAPEUTICS FOR DISEASE STATES” (UNIVERSITY OF PITTSBURGH-OF THE COMMONWEALTH SYSTEM OF …, priority 2021, published 2025)
“Also recorded” adds a separate entry of the source. For at least one compound, name, drawing or mass did not settle the structure.

Columns and labels:
[1] = tested on: murine NASH models; conditions: murine NASH models [Nakagami 2012, Lee 2019]; cited from earlier work
[2] = tested on: LX-2 human stellate cells; assay: LAMPS stellate cell activation (α-smooth muscle actin staining); format: cell-based; conditions: for Effect on stellate cell activation: LAMPS NAFLD/MAFLD model, summary statement; for Stellate cell activation (α-SMA intensity): LAMPS, 10 μM OCA, 30 μM PGZ
Description: (§1) LAMPS cell sources and cell culture. A single lot of selected cryopreserved primary human hepatocytes (lot #Hu1960) with >90% viability and re-plating efficiency post-thaw were purchased from ThermoFisher. A single lot of selected cryopreserved primary human liver sinusoidal endothelial cells (LSEC; lot #: HL160019) were purchased from LifeNet Health (formerly Samsara Sciences; Virginia Beach, VA.). The human monoblast cell line, THP-1, used to generate Kupffer cells, was purchased from ATCC (Rockville, MD). LX-2 human stellate cells were acquired from Sigma Millipore (Billerica, MA). The LX-2 cell is an immortalized human hepatic stellate cell that constitutively expresses key receptors regulating hepatic fibrosis, and proliferates in response to PDGF, a prominent mitogen contributing to liver fibrosis (Bonner 2004, Xu, Hui et al. 2005).
(§2) LAMPS model assembly and maintenance. […] The experimental setup workflow is described in the Supplement.
Stellate cell activation. Staining for LX-2 cell expression of α-smooth muscle actin (α-SMA) was performed after completion of the experimental time course (Day 10) in LAMPS models as previously described (Vernetti, Senutovitch et al. 2016, Li, George et al. 2018) and are outlined in detail in the Supplemental Methods section.

[3] = tested on: LAMPS models; assay: LAMPS hepatocellular steatosis (LipidTOX labeling); format: cell-based, human; conditions: for Effect on steatosis: LAMPS NAFLD/MAFLD model, summary statement; for Steatosis / lipid accumulation (LipidTOX intensity) / Hepatocellular steatosis / lipid accumulation (LipidTOX intensity): LAMPS, 10 μM OCA, 30 μM PGZ; for Steatosis / lipid accumulation (LipidTOX intensity): EMS media, day 10, vs vehicle, vorinostat 1.7 or 5 μM, pioglitazone 30 μM + vorinostat 1.7 or 5 μM; for Hepatocellular steatosis / lipid accumulation (LipidTOX intensity): NAFLD disease media, day 10, vs vehicle control, 10 μM TGZ, Vorinostat 1.7 or 5 μM, AS601245 1 or 3 μM, pioglitazone + vorinostat combination
Method: as §2
Steatosis measurements. Steatosis measurements were performed using HCS LipidTOX Deep Red Neutral Lipid Stain (ThermoFisher) after completion of the experimental time course (Day 10) in LAMPS models as previously described (Lee-Montiel, George et al. 2017) and are outlined in detail in the Supplemental Methods section.

[4] = tested on: Pro-collagen 1A1 and TIMP-1; assay: LAMPS secretion of pro-fibrotic markers (ELISA); format: cell-based, human; conditions: for Effect on secreted pro-fibrotic markers / fibrosis: LAMPS NAFLD/MAFLD model, summary statement; for Secreted levels / production of TIMP-1 / Secreted levels / production of the pro-fibrotic marker Pro-Col 1a1: LAMPS, 10 days, vs vehicle, 10 μM OCA, 30 μM PGZ
Description: as §2

[5] = in vivo; cited from earlier work
[6] = tested on: LAMPS models; assay: LAMPS model functionality (albumin and blood urea nitrogen secretion); format: cell-based, human; conditions: for Albumin curves / Blood urea nitrogen curves: NAFLD disease media, 10-day time course, vs vehicle control, 10 μM OCA, 30 μM PGZ, 10 μM TGZ, Vorinostat 1.7 or 5 μM, AS601245 1 or 3 μM, pioglitazone + vorinostat combination
Description: as §1
Primary human hepatocytes were thawed following the manufacturer's recommendations using Cryopreserved Hepatocyte Recovery Medium (CHRM; ThermoFisher) and were initially cultured in hepatocyte plating media (HPM) containing Williams E medium (11.5 mM glucose) supplemented with 5% fetal bovine serum, […] penicillin-streptomycin and 2 mM L-glutamine. For perfusion in LAMPS models, cells were maintained in normal fasting (NF), early metabolic syndrome (EMS), or late metabolic syndrome (LMS) media. The description of components of these media types is detailed in the Metabolic Syndrome Media section below. LSECs were thawed and expanded in endothelial cell basal medium-2 (EBM-2) supplemented with the endothelial growth medium-2 (EGM-2) supplement pack (Lonza; Alpharetta, GA; #CC-4176). THP-1 cells were cultured in suspension in RPMI-1640 medium (ThermoFisher) supplemented with 10% fetal bovine serum (FBS; ThermoFisher), 100 μg/mL penicillin streptomycin (ThermoFisher), and 2 mM L-glutamine (ThermoFisher). THP-1 cells were differentiated into mature macrophages by treatment with 200 ng/mL phorbol myristate acetate (Sigma Aldrich) for 48 h. Differentiated THP-1 monocytes release human tumor necrosis factor alpha (TNF-α) and interleukin-6 (IL-6) in response to LPS treatment, a condition reported to induce the immune mediated liver toxic response in in vitro models (Jang, Choi et al. 2006, Kostadinova, Boess et al. 2013). LX-2 cells were cultured in Dulbecco's Modified Eagle Medium (DMEM; ThermoFisher) supplemented with 2% FBS and 100 μg/mL penicillin streptomycin.
Metabolic syndrome media. We developed medias that were designed to create disease progression from Normal Fasting (NF) to early metabolic syndrome (EMS or NAFLD) and late metabolic syndrome (LMS or T2D) over a two-week period in the LAMPS platform (Mohammed 2021). For the studies described here, we used both NF and EMS media formulations. […] We then adjusted these components to reflect the pathophysiological conditions as described below (Alford, Bloodm et al. 1977, Kuhl 1977, Kim, Kim et al. 2000, Chitturi, Abeygunasekera et al. 2002, de Almeida, Cortez-Pinto et al. 2002, Valencia, Marin et al. 2002, Edgerton, Ramnanan et al. 2009, Winnick, An et al. 2009).
Early Metabolic Syndrome (EMS) Media: Early metabolic syndrome (EMS) medium was derived from the NF media formulation with the following modifications: 11.5 mM glucose, 10 nM insulin, […] glucagon, 200 μM sodium oleate and 100 μM palmitic acid (Sigma).
as §2

[7] = EMS media, day 10, vs vehicle, vorinostat 1.7 or 5 μM, pioglitazone 30 μM + vorinostat 1.7 or 5 μM
[8] = NAFLD disease media, day 10, vs vehicle control, 10 μM TGZ, Vorinostat 1.7 or 5 μM, pioglitazone + vorinostat combination
[9] = EMS media, vorinostat 1.7 or 5 μM, pioglitazone 30 μM + vorinostat 1.7 or 5 μM
[10] = NAFLD disease media, 10 μM TGZ, Vorinostat 1.7 or 5 μM, pioglitazone + vorinostat combination

| SMILES | Hepatic calcium dyshomeostasis-driven steatosis, insulin resistance and ROS [1] | Effect on stellate cell activation [2] | Stellate cell activation (α-SMA intensity) [2, 7] | Stellate cell activation (α-SMA intensity) [2, 8] | Effect on steatosis [3] | Steatosis / lipid accumulation (LipidTOX intensity) [3] | Hepatocellular steatosis / lipid accumulation (LipidTOX intensity) [3] | Effect on secreted pro-fibrotic markers / fibrosis [4] | Secreted levels / production of TIMP-1 [4, 9] | Secreted levels / production of the pro-fibrotic marker Pro-Col 1a1 [4, 9] | Secreted levels / production of TIMP-1 [4, 10] | Clinical benefit in NAFLD clinical trials [5] | Albumin curves [6] | Blood urea nitrogen curves [6] | Albumin secretion at the day 6 timepoint ([6]; EMS media, day 6, 10 μM OCA vs vehicle, no further significant increases at days 8 and 10) |
| --- | --- | --- | --- | --- | --- | --- | --- | --- | --- | --- | --- | --- | --- | --- | --- |
| COC(=O)C1=C(C)NC(C)=C(C(=O)OC)C1c1ccccc1[N+](=O)[O-] [Nifedipine, nifedipine] | ameliorated | – | – | – | – | – | – | – | – | – | – | – | – | – | – |
| CCc1ccc(CCOc2ccc(CC3SC(=O)NC3=O)cc2)nc1 (stereo not shown) [PGZ, pioglitazone] | – | reduced; also recorded: inhibition | significant decrease | significant decrease | reduced; also recorded: antisteatotic effect | significant decrease | significant decrease | without an appreciable effect | no significant change | no significant change | no significant change | marginal clinical benefit; also recorded: appreciable clinical benefit | no significant differences | no significant differences | – |
| CC[C@H]1[C@@H](O)[C@@H]2[C@H](CC[C@]3(C)[C@@H]([C@H](C)CCC(=O)O)CC[C@@H]23)[C@@]2(C)CC[C@@H](O)C[C@@H]12 [OCA, obeticholic acid] | – | reduced; also recorded: inhibition | significant decrease | significant decrease | reduced; also recorded: antisteatotic effect | significant decrease | significant decrease | without an appreciable effect | no significant change | no significant change | no significant change | marginal clinical benefit; also recorded: appreciable clinical benefit | no significant differences | no significant differences | significant increase |
